In all, about 320,000 compounds went through this assay and about 2,100 (0.66%) were called active. The shares of active, inactive and inconclusive entries below differ from those in the screen. The call rests on the fitted dose curve; in most records, active means well fitted inhibition curve with a large enough effect in the signal ratio, with a control signal flat (not every such curve was filed as active); inconclusive means small, poorly fitted or top-dose-only effect, or effect the other way, or a change in a side signal; inactive means flat fitted curve, though single readings scatter; the % refers to the signal ratio. Where the call is inconclusive, the potency comes from a doubtful curve fit.
Experiment: qHTS Assay for Lipid Storage Modulators in Drosophila S3 Cells
Settings: BODIPY lipid droplet fluorescence, 18-24 h, cells fed with added oleic acid; lipid storage change, negative = inhibition: at 46.1 µM (top of the series) unless noted
In short: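 Drosophila S3 cells loaded with oleic acid (400 uM, as added) and compounds at several concentrations; lipid droplets imaged by 488-nm laser-scanning cytometry, 500–530 nm intensity and object ratio to cell channel. Percent activity normalized to 20 uM Triacsin C.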
On the % scale 0 is the no-effect control and ±100 the full control effect; potency means the concentration at half of the fitted maximal effect.

Row | SMILES | lipid storage change, negative = inhibition | Potency
1 | CC(=O)Nc1ccc(/C=N/N2CCCCC2)cc1 | inconclusive: -19.8% | –
2 | COCCN(Cc1nc(C(c2ccccc2)c2ccccc2)no1)C(C)C | – | inconclusive: 6.51 µM [activator, single point]
3 | CCN(CC(=O)NC(C)C)C(=O)[C@@H](NC(=O)c1ccco1)C(C)C | inconclusive: 2.38% | –
4 | Cc1ccccc1-n1c(C)cc(/C=N/NC(=O)c2ccc(CN3CCOCC3)cc2)c1C | inconclusive: 11.3% | –
5 | O=C(COc1ncnc2ccccc12)NCCc1ccccc1 | inconclusive: 0.108% | –
6 | O=C(NCc1ccc2c(c1)OCO2)c1ccc(CSCc2cccc(Cl)c2)o1 | inconclusive: 20% | –
7 | COc1cc(/C=N/NC(=O)CC#N)cc(Br)c1O | inconclusive: -29.7% | –
8 | O=C(c1cc(F)c(F)cc1Cl)N1CCN(S(=O)(=O)c2cccs2)CC1 | inconclusive | –
9 | Cc1cc(F)ccc1NC(=O)C1CSC2(C)CCC(=O)N12 (stereo not drawn) | inconclusive: 18.7% | –
10 | CN(c1ccccc1)S(=O)(=O)c1ccc(C(=O)NCc2ccccc2CN2CCCC2)cc1 | inconclusive | –
11 | Cn1nc(C(=O)NNC(=O)CCc2ccccc2Cl)c2ccccc2c1=O | – | inconclusive: 6.51 µM [falling, single point]
12 | CCc1c(C)nc2ncnn2c1N1CCCC(C(=O)NCCc2ccc(OC)cc2)C1 (stereo not drawn) | inconclusive: 41.5% | –
13 | O=C(O)CC1(CC(=O)N2CCOCC2)CCCC1 | – | inconclusive: 29.1 µM [activator, single point]
14 | Cc1ccc(OCCCN2CCCC2)c(C)c1 | – | inconclusive: 29.1 µM [cytotoxic, single point]
15 | CC(C)Oc1ccc(S(=O)(=O)N2CCOCC2)cc1NC(=O)C1CSC2(C)CCC(=O)N12 (stereo not drawn) | inconclusive | –
16 | C(=C\n1nnc2ccccc21)/c1ccc[nH]1 | inconclusive: 25.9% | –
17 | COc1ccc(-n2nc3c(c2NC(=O)C(C)C)CSC3)cc1 | – | inconclusive: 29.1 µM [rising, partial curve, poor fit]
18 | CCn1c(SCC(=O)Nc2cc(C)on2)nnc1-c1cccnc1 | inconclusive: 17.6% | –
19 | CCCCn1c(-c2ccc(Cl)c(Cl)c2)nc2cc3[nH]c(=O)c(C(C)C)nc3cc21 | inconclusive: -3.21% | –
20 | Cc1ccc(-c2c[n+](CC(=O)N3c4ccccc4Sc4ccccc43)c3n2CCC3)cc1 | – | inconclusive: 23.1 µM [falling, single point]
21 | O=C(CCSc1nc(-c2ccco2)cc(C(F)(F)F)n1)NCCc1ccccc1 | inconclusive: 16.1% | –
22 | O=C(O)CCn1cc(/C=C2\SC(=S)NC2=O)c(-c2ccccc2)n1 | inconclusive: 64.1% | –
23 | COc1ccc(CNc2nc(NCc3ccc(OC)cc3)c3[nH]cnc3n2)cc1 | inconclusive: -10.6% | –
24 | Cc1ccc(C(c2sc3ncnn3c2O)N2CC(C)CC(C)C2)cc1 (stereo not drawn) | inactive | –
25 | Cc1ccc(CN2CCN(/N=C/c3ccc(C(F)(F)F)cc3)CC2)c(C)c1 | inconclusive: -50.7% | –
26 | CCC(c1nnnn1Cc1ccc2c(c1)OCO2)N1CCN(c2ccc(OC)cc2)CC1 (stereo not drawn) | – | inconclusive: 0.092 µM [rising, single point]

Copied from the entries so far (19 entries):
Row | SMILES | lipid storage change, negative = inhibition | Potency
8 | O=C(c1cc(F)c(F)cc1Cl)N1CCN(S(=O)(=O)c2cccs2)CC1 | inconclusive | –
9 | Cc1cc(F)ccc1NC(=O)C1CSC2(C)CCC(=O)N12 (stereo not drawn) | inconclusive: 18.7% | –
10 | CN(c1ccccc1)S(=O)(=O)c1ccc(C(=O)NCc2ccccc2CN2CCCC2)cc1 | inconclusive | –
11 | Cn1nc(C(=O)NNC(=O)CCc2ccccc2Cl)c2ccccc2c1=O | – | inconclusive: 6.51 µM [falling, single point]
12 | CCc1c(C)nc2ncnn2c1N1CCCC(C(=O)NCCc2ccc(OC)cc2)C1 (stereo not drawn) | inconclusive: 41.5% | –
13 | O=C(O)CC1(CC(=O)N2CCOCC2)CCCC1 | – | inconclusive: 29.1 µM [activator, single point]
14 | Cc1ccc(OCCCN2CCCC2)c(C)c1 | – | inconclusive: 29.1 µM [cytotoxic, single point]
15 | CC(C)Oc1ccc(S(=O)(=O)N2CCOCC2)cc1NC(=O)C1CSC2(C)CCC(=O)N12 (stereo not drawn) | inconclusive | –
16 | C(=C\n1nnc2ccccc21)/c1ccc[nH]1 | inconclusive: 25.9% | –
17 | COc1ccc(-n2nc3c(c2NC(=O)C(C)C)CSC3)cc1 | – | inconclusive: 29.1 µM [rising, partial curve, poor fit]
18 | CCn1c(SCC(=O)Nc2cc(C)on2)nnc1-c1cccnc1 | inconclusive: 17.6% | –
19 | CCCCn1c(-c2ccc(Cl)c(Cl)c2)nc2cc3[nH]c(=O)c(C(C)C)nc3cc21 | inconclusive: -3.21% | –
20 | Cc1ccc(-c2c[n+](CC(=O)N3c4ccccc4Sc4ccccc43)c3n2CCC3)cc1 | – | inconclusive: 23.1 µM [falling, single point]
21 | O=C(CCSc1nc(-c2ccco2)cc(C(F)(F)F)n1)NCCc1ccccc1 | inconclusive: 16.1% | –
22 | O=C(O)CCn1cc(/C=C2\SC(=S)NC2=O)c(-c2ccccc2)n1 | inconclusive: 64.1% | –
23 | COc1ccc(CNc2nc(NCc3ccc(OC)cc3)c3[nH]cnc3n2)cc1 | inconclusive: -10.6% | –
24 | Cc1ccc(C(c2sc3ncnn3c2O)N2CC(C)CC(C)C2)cc1 (stereo not drawn) | inactive | –
25 | Cc1ccc(CN2CCN(/N=C/c3ccc(C(F)(F)F)cc3)CC2)c(C)c1 | inconclusive: -50.7% | –
26 | CCC(c1nnnn1Cc1ccc2c(c1)OCO2)N1CCN(c2ccc(OC)cc2)CC1 (stereo not drawn) | – | inconclusive: 0.092 µM [rising, single point]

The results go on.

Row | SMILES | lipid storage change, negative = inhibition | Potency
27 | COc1ccc([C@@H]2CC=C(C(=O)O)[C@H](c3ccc(F)cc3)N2S(=O)(=O)c2ccc(Cl)cc2)cc1 | – | inconclusive: 29.1 µM [activator, single point]
28 | Cc1cc2cc(C)c3nnc(SCC(=O)Nc4ccc(S(=O)(=O)N5CCCCC5C)cc4)n3c2cc1C (stereo not drawn) | inconclusive: 36.2% | –
29 | CCCOc1ccc(-c2nnn(CC(=O)c3c[nH]c4ccccc34)n2)cc1 | – | inconclusive: 3.26 µM [rising, single point]
30 | Cc1ccc(C(=O)N/C(=C\c2ccco2)C(=O)NCCN2CCOCC2)cc1 | inconclusive: -86.2% | –
31 | COc1ccc(Oc2cc(C)nc(Cl)n2)nn1 | – | inconclusive: 32.6 µM [falling, single point]
32 | Nc1c(N(Cc2ccco2)C(=O)c2cccc(Cl)c2)c(=O)[nH]c(=O)n1Cc1ccccc1 | inconclusive: -2.06% | –
33 | COC(=O)CSc1ncc(C#N)c(N)n1 | – | inconclusive: 29.1 µM [falling, single point]
34 | Clc1cnc(N/N=C/c2ccncc2)c(Cl)c1 | – | inconclusive: 29.1 µM [activator, partial curve, poor fit]
35 | O=C1CN(C(=O)COC(=O)CNS(=O)(=O)/C=C/c2ccccc2)c2ccccc2N1 | – | inconclusive: 0.146 µM [rising, single point]
36 | O=C(Cc1ccc(Br)cc1)Nc1ccc(S(=O)(=O)Nc2ncccn2)cc1 | inconclusive: 98.6% | –
37 | CC(=O)NS(=O)(=O)c1ccc(N=c2ssc3c2-c2cc(C)c(C)cc2NC3(C)C)cc1 | inconclusive: -19.4% | –
38 | Cc1ccc(C)c(N2CCN(C(=O)C3CCCN(S(=O)(=O)c4c(C)noc4C)C3)CC2)c1 (stereo not drawn) | inconclusive: -2.48% | –
39 | CC(C)c1nnc(SCC(=O)Nc2ccc3c(c2)OCCO3)n1C | inconclusive: 2.68% | –
40 | CCN1CCN(c2ccc(NC(=O)c3ccco3)cc2Cl)CC1 | inconclusive: -3.57% | –
41 | OCCN1CCN(C(c2cccs2)c2ccc3cccnc3c2O)CC1 (stereo not drawn) | inconclusive: -15.5% | –
42 | COc1ccc(-c2ccc(S(=O)(=O)N3CCCC3)cc2)cc1 | inconclusive: 7.83% | –
43 | COc1ccc(CCC(=O)NCCc2ccc(OC)c(OC)c2)cc1 | inconclusive: -18.9% | –
44 | CCC(Sc1ccccc1C(=O)O)C(=O)O (stereo not drawn) | – | inconclusive: 29.1 µM [falling, single point]
45 | O=C(Cc1cccs1)NCCCc1ccccc1 | inconclusive: -22.9% | –
46 | CC(C)c1nc(N2CCN(C(=O)c3ccco3)CC2)c2c3c(sc2n1)CCCC3 | inconclusive: 0.035% | –
47 | COc1cc(/C=N/N=C(N)N)ccc1OCc1ccccc1Cl | inconclusive: -98.5% | –
48 | O=C(Nc1cccc([N+](=O)[O-])c1)c1cnccn1 | – | inconclusive: 4.11 µM [activator, single point]
49 | Cc1ccccc1N/C(=N/S(=O)(=O)c1ccccc1)c1ccc(F)cc1 | inconclusive: -22.4% | –
50 | COc1ccc([C@@H](OC)[C@@]2(Cc3ccc(O)cc3)N=C(N)N(C)C2=O)cc1 | inconclusive: 6.33% | –
51 | O=c1cc(C(F)(F)F)[nH]c(=O)n1C1CCCCC1 | inconclusive: 9.58% | –
52 | c1ccc(C2CCC(N3CCN(c4ccccc4)CC3)CC2)cc1 (stereo not drawn) | inconclusive: -20.8% | –

Row | SMILES | lipid storage change, negative = inhibition | Potency
53 | O=C(NCCN1C(=O)S/C(=C\c2cccnc2)C1=O)c1cc(S(=O)(=O)N2CCOCC2)ccc1F | – | inconclusive: 29.1 µM [falling, single point]
54 | O=C(Nc1ccc2c(c1)OCO2)c1cccs1 | inconclusive: 10% | –
55 | O=C(O)c1cc(=O)c2ccccc2o1 | inconclusive: 4.08% | –
56 | Cc1[nH]nc2c1C(c1ccc(-c3ccc(Cl)cc3)o1)C(C#N)=C(N)O2 (stereo not drawn) | – | inconclusive: 29.1 µM [falling, single point]
57 | C=CCSc1nnc2c(n1)[nH]c1c(C)cccc12 | – | inconclusive: 13 µM [activator, partial curve, poor fit]
58 | CCOc1ccc(-c2cc(CCCC(=O)Nc3cc(OC)ccc3OC)no2)cc1 | – | inconclusive: 13 µM [falling, single point]
59 | O=C(COc1ccc(F)cc1)N(c1ccccn1)C1CCCCC1 | inconclusive: 2.92% | –
60 | Cc1ccc(-c2nc(NC(=O)CSc3cc(C)c4ccccc4n3)ns2)cc1 | inconclusive: 0.0287% | –
61 | CCOC(=O)C(=NCCCN(C)C)NNc1cc(C(F)(F)F)ccc1Cl | inconclusive: 11.5% | –
62 | CN(Cc1nc2ccccc2c(=O)[nH]1)C(=O)c1ccccc1OCc1ccc(Cl)cc1 | inconclusive: 14.3% | –
63 | Cc1cc2oc(=O)cc(CN3CCC(C)CC3)c2cc1Cl | – | inconclusive: 2.31 µM [falling, partial curve, poor fit]
64 | Cc1cccc(NC(=O)C(C)C(=O)c2ccccc2)c1 (stereo not drawn) | inconclusive: -61.2% | –
65 | COc1ccc(CNC(=O)CC2(CC(=O)O)CCCCC2)cc1 | inactive | –
66 | CC(C)CCNC(=O)c1ccccc1SCC(=O)NC1CCCCCCC1 | – | inconclusive: 5.8 µM [falling, partial curve, poor fit]
67 | O=C(Cn1cnc([N+](=O)[O-])n1)NCCO | inactive | –
68 | CCN(CC(=O)Nc1ccc(NC(C)=O)cc1)C(=O)c1c(-c2c(F)cccc2Cl)noc1C | inconclusive: 21.1% | –
69 | COc1ccc(/C=C/C(=O)NC(=S)NN2CCCCC2c2cccnc2)cc1 (stereo not drawn) | – | inconclusive: 0.411 µM [activator, full curve]
70 | CN(CC(=O)Nc1ccc(F)cc1)C(=O)COC(=O)CCN1C(=O)C2CC=CCC2C1=O (stereo not drawn) | inconclusive: 6.05% | –
71 | C[C@@H](C(O)c1ccccc1)N(C)C(=O)CCc1ccccc1 (stereo partly drawn) | inconclusive: 176% | –
72 | CCN(CC(=O)NCc1ccc(F)cc1)Cc1nc2ccccc2c(=O)[nH]1 | – | inconclusive: 3.66 µM [activator, single point]
73 | O=C(CSc1nccc(=O)[nH]1)Nc1ccccc1Sc1ccccc1 | inconclusive: -50.9% | –
74 | O=C1CCN(C(=O)Nc2ccccc2)N1 | inconclusive: -75.2% | –
75 | CC(=O)c1ccc(NS(=O)(=O)c2ccc3c(c2)N(C)CCO3)cc1 | – | inconclusive: 29.1 µM [activator, single point]
76 | O=C(c1c(F)cccc1F)N1CCN(c2ncccn2)CC1 | inconclusive: -141% | –
77 | Cc1ccc(Cl)cc1N1CCN(S(=O)(=O)c2ccc3c(c2)oc(=O)n3C)CC1 | – | inconclusive: 7.31 µM [activator, partial curve]
78 | O=C(O)C1CCCN1S(=O)(=O)c1ccc2[nH]c(=O)c(=O)[nH]c2c1 (stereo not drawn) | inconclusive: 12.5% | –

Source: PubChem BioAssay AID2685 (National Center for Advancing Translational Sciences (NCATS), 2010)
